Hit rate of the full screen: of about 300,000 compounds, about 3,700 (1.2%) were called active. Inconclusive results, whose numbers are uncertain, are shown with a selection of clear calls. Calls come from the whole dose curve; tested in HEK293 cells. A potency beside an inconclusive call is a rough fit, not a confirmed value.
Test: qHTS for Inhibitors of binding or entry into cells for Lassa Virus; note: nearly all actives have a fitted effect of over 50% in size
Details: Lassa virus pseudotype entry inhibition, cell reporter; activity change, negative = inhibition: at 37.9 µM (top of the series) unless noted
% is set by controls: 0 for no effect and ±100 for the full control effect; potency is the fitted concentration of half-maximal effect.

| Compound | activity change, negative = inhibition | Potency |
| --- | --- | --- |
| O=C(CSc1nc2ccccc2[nH]1)Nc1cc(C(F)(F)F)ccc1N1CCOCC1 | inactive: -26.9% |  |
| O=C(CC1C(=O)N(c2ccc(F)cc2)C(=O)N1Cc1ccc2c(c1)OCO2)Nc1ccc(Cl)cc1 (stereo not drawn) |  | inconclusive: 35.5 µM [inhibitor, single point] |
| CCN(CC)CC#CCC(O)(c1ccccc1)C1CCCC1 (stereo not drawn) |  | inconclusive: 32.6 µM [inhibitor, single point] |
| Cc1ccc(-n2cc(C(=O)Oc3ccc(F)cc3)c3ccccc3c2=O)cc1 |  | inconclusive: 35.5 µM [inhibitor, single point] |
| CCOC(=O)C1CCN(C(=O)Cc2ccc(C)cc2)CC1 |  | inconclusive: 0.562 µM [activator, full curve, poor fit] |
| Cc1cnc(NC(=O)c2cc3c(C)nn(Cc4ccccc4Cl)c3s2)s1 | inactive: -16.3% |  |
| CCN(CC)S(=O)(=O)c1cccc(C(=O)N/N=C/c2cccc(O)c2O)c1 |  | active: 13 µM |
| Cc1ccc(C)c(NC(=O)CSc2n[nH]c(-c3ccccn3)n2)c1 |  | inconclusive: 17.8 µM [inhibitor, partial curve, poor fit] |
| O=C1N(Cc2cccnc2)C[C@@H]2C[C@@H](c3ccc4nsnc4c3)N3CCC[C@@]123 | inactive: -8.57% |  |
| Cn1cccc1CC(=O)N/N=C\c1cccs1 | inactive: 8.83% |  |
| O=C(NCCNC(=O)c1cc(OCC(F)(F)F)ccc1OCC(F)(F)F)Nc1ccccc1 | inactive: 13.7% |  |
| CCOc1ccc2oc(C(=O)N(Cc3nnc(-c4ccccc4Cl)o3)C3CC3)c(C)c2c1 | inactive: -29.7% |  |
| O=C(CSc1oc(-c2ccccc2)nc1S(=O)(=O)c1ccc(Cl)cc1)c1ccccc1 |  | inconclusive: 6.31 µM [inhibitor, single point] |
| CC1CN(C(=O)c2ccccc2)C(=Nc2cccc(S(=O)(=O)N(C)C)c2)S1 (stereo not drawn) |  | inconclusive: 8.2 µM [inhibitor, partial curve] |
| CC(C)c1ccccc1NC(=O)COC(=O)c1cccnc1 | inactive: 16.6% |  |
| Cc1cccc(C)c1NCc1nnc(SCC(=O)Nc2nc(-c3ccccc3)cs2)n1-c1ccccc1 | inactive: -2.38% |  |
| CCCCOc1ccc(CSCCNC(=S)Nc2ccccc2)cc1 |  | inconclusive: 12.6 µM [inhibitor, single point] |
| CCOc1ccc(NC(=O)c2cc(S(=O)(=O)N3CCc4ccccc43)ccc2F)cc1 |  | inconclusive: 11.2 µM [inhibitor, partial curve, poor fit] |
| O=C(CCCn1c(SCC(=O)c2ccc(F)cc2)nc2ccccc2c1=O)NCc1ccccc1 | inactive: -5.57% |  |
| CCOc1ccc(C(C(=O)NC2CCCCC2)N(CCOC)C(=O)c2snc(C(N)=O)c2N)cc1 (stereo not drawn) | inactive: -21.6% [at 46.1 µM] |  |
| N/C(=N\OC(=O)N1c2ccccc2Sc2ccccc21)c1ccccc1 | inactive: -29.7% |  |
| O=C(OCC(=O)N1CCCC1)c1cnc(Cl)c(Cl)c1 |  | inconclusive: 5.62 µM [activator, single point] |
| COc1cccc(C(=O)N/N=c2\sc3ccccc3n2C)c1 | inactive: 8.11% |  |

Whole records as entered above.
CCN(CC)CC#CCC(O)(c1ccccc1)C1CCCC1 (stereo not drawn) is listed as Potency: inconclusive: 32.6 µM [inhibitor, single point]
O=C(CSc1oc(-c2ccccc2)nc1S(=O)(=O)c1ccc(Cl)cc1)c1ccccc1 is listed as Potency: inconclusive: 6.31 µM [inhibitor, single point]

Further structures

| Compound | activity change, negative = inhibition | Potency |
| --- | --- | --- |
| CCCCn1cnc2cc(NCc3ccc(OCC)cc3)ccc21 |  | inconclusive: 6.31 µM [inhibitor, single point] |
| O=C(Nc1ccc2c(c1)OCCO2)c1ccc2nccnc2c1 |  | inconclusive: 25.9 µM [inhibitor, partial curve, poor fit] |
| Cc1ccc(SCC(=O)NC(=O)NC2CCCC2)c(C)c1 |  | inconclusive: 17.8 µM [inhibitor, single point] |
| CC(C)c1ccc(NC(=O)c2cc(S(=O)(=O)N(C)C3CCCCC3)ccc2F)cc1 |  | inconclusive: 3.16 µM [inhibitor, partial curve, poor fit] |
| CC(C)(C)c1nc2ccccc2c2nnc(SCC(=O)Nc3nc4ccccc4s3)n12 |  | inconclusive: 20.6 µM [inhibitor, partial curve, poor fit] |
| COc1cccc(C(=O)Nc2c3c(nn2-c2ccc(Cl)cc2)CS(=O)(=O)C3)c1OC |  | inconclusive: 35.5 µM [inhibitor, partial curve, poor fit] |
| CCC(=O)N1c2ccccc2CC1C(=O)NCc1cc(OC)ccc1OC (stereo not drawn) |  | inconclusive: 2.24 µM [activator, partial curve, poor fit] |
| COc1cc(-c2[nH]ncc2CN2CCSCC2)cc(OC)c1OC | inactive: -9.22% |  |
| O=C(C1=C(O)C(=O)N(Cc2ccco2)C1c1cccc(O)c1)c1ccco1 (stereo not drawn) |  | inconclusive: 0.794 µM [activator, full curve, poor fit] |
| Cc1c(Cl)cccc1NS(=O)(=O)c1ccc(-c2cnc(C3CC3)o2)cc1 |  | inconclusive: 3.55 µM [inhibitor, partial curve, poor fit] |
| O=C(CCSc1nc2ccccc2o1)N1CCOCC1 | inactive: 17.6% |  |
| CCC(C)[C@H](NC(=O)OC(C)(C)C)C(=O)N/N=C/C1=Cc2ccccc2OC1 (stereo partly drawn) |  | inconclusive: 0.517 µM [inhibitor, full curve] |
| COC(CNC(=O)c1ccc2c(c1)ncn2-c1ccc(C)cc1C)OC |  | inconclusive: 15.8 µM [inhibitor, single point] |
| C[C@@H](ON=C1[C@H]2CCn3c(=O)n(-c4ccccc4)c(=O)n3[C@@H]2[C@H](O)[C@@H]2O[C@H]12)c1cn([C@H](CO)Cc2ccccc2)nn1 |  | inconclusive: 1.68 µM [inhibitor, partial curve, poor fit] |
| CC1CC1C(=O)Nc1cc(S(=O)(=O)N2CCOCC2)ccc1N1CCCC1 (stereo not drawn) | inactive: -3.65% |  |
| COC(=O)CC=C1c2ccc(OC)cc2[C@@H](OC)[C@@H]1C |  | inconclusive: 0.0335 µM [inhibitor, full curve, poor fit] |
| CCN(CC)CCNC(=O)CCCCCn1c(=O)[nH]c2cc(C(=O)OC)ccc2c1=O |  | inconclusive: 4.61 µM [activator, partial curve, poor fit] |
| CC(C)Cc1csc(NC(=O)c2ccc(Cl)cc2)c1C(=O)O |  | inconclusive: 22.4 µM [inhibitor, single point] |
| COC(=O)[C@@H]1CCCN1C(=O)CCc1nnc(C2CCCCC2)o1 | inactive: 3.81% [at 46.1 µM] |  |
| C=CCNC(=O)c1cc(-c2ccc(Br)cc2)on1 | inactive: -16.5% |  |
| COc1ccc(Oc2nc(-c3ccccn3)nc3ccccc23)cc1 |  | inconclusive: 35.5 µM [inhibitor, single point] |
| COc1ccc(CC(=O)NNC(=O)c2ccncc2)cc1 |  | inconclusive: 1.26 µM [inhibitor, single point] |
| COc1cccc(CN(C)CC(=O)Nc2ccccc2C(=O)Nc2ccccc2)c1OC |  | inconclusive: 35.5 µM [inhibitor, single point] |

| Compound | activity change, negative = inhibition | Potency |
| --- | --- | --- |
| O=C(CSc1n[nH]c(-c2ccccc2Cl)n1)NCc1ccc(F)cc1 | inactive: 12.7% [at 46.1 µM] |  |
| O=C(CSc1nnc(NC(=O)c2ccc(F)cc2F)s1)NC1CCCC1 | inactive: -27.8% |  |
| Cc1cccc(NCc2ccc(O)c3ncccc23)c1 |  | inconclusive: 6.31 µM [inhibitor, partial curve, poor fit] |
| Cc1cc(SCC(=O)N/N=C/c2ccc(O)c(O)c2O)c(C)cc1Br |  | inconclusive: 35.5 µM [inhibitor, single point] |
| CCc1ccc2[nH]c(=O)c(C(c3nnnn3CCOC)N3CCN(c4ccc(F)cc4)CC3)cc2c1 (stereo not drawn) |  | inconclusive: 8.91 µM [inhibitor, partial curve, poor fit] |
| CCCCc1nnc(SCCSc2nnc(CCCC)n2N)n1N | inactive: 0.416% |  |
| C[C@H]1C=CCC(=O)N[C@@H](c2ccccc2)[C@@H](C)C=CCC(=O)N[C@@H]1c1ccccc1 | inactive: -12.8% [at 14.3 µM] |  |
| COc1ccccc1NC(=O)c1ccccc1NS(=O)(=O)N1CCCC1 | inactive: -1.44% |  |
| OCCCN1c2ccccc2Nc2nnc(-c3ccccc3)cc21 |  | inconclusive: 35.5 µM [inhibitor, single point] |
| Cc1ccccc1NC(=O)c1c(C)oc2ccc(O)c(CN3CCOCC3)c12 |  | inconclusive: 20 µM [inhibitor, single point] |
| CCn1c(=O)c2cc(C(=O)NCCCN3CCN(C)CC3)sc2c2ccccc21 | inactive: -1.16% [at 46.1 µM] |  |
| Cc1ccc(-c2nc(SCC(=O)Nc3cc(S(=O)(=O)N4CCCCC4)ccc3Cl)n[nH]2)cc1 |  | inconclusive: 10 µM [inhibitor, partial curve, poor fit] |
| COc1ccc(N(C(=O)c2snc(C(N)=O)c2N)C(C(=O)NC2CCCC2)c2ccc3ncccc3c2)cc1 (stereo not drawn) |  | inconclusive: 22.4 µM [inhibitor, partial curve, poor fit] |
| O=C(NNC(=O)c1ccccc1C(=O)O)c1ccc(O)cc1 | inactive: 11.7% [at 46.1 µM] |  |
| O=C(Oc1ccccc1/C=C\C(=O)c1cc2ccccc2o1)c1ccccc1 |  | inconclusive: 17.8 µM [inhibitor, single point] |
| Cc1cc(O)ccc1NC1=CC(=O)CC(C)(C)C1 |  | inconclusive: 0.794 µM [activator, single point] |
| CCCCCN=Cc1c(C)[nH]n(-c2nc3ccccc3s2)c1=O |  | inconclusive: 25.9 µM [inhibitor, single point] |
| Cc1sc2ncnc(OCc3nnc(-c4cccs4)o3)c2c1C | inactive: -2.86% |  |
| CCOc1cc(C2NC(=O)NC(C)=C2C(=O)OCc2ccccc2)ccc1O (stereo not drawn) |  | inconclusive: 5.8 µM [inhibitor, full curve] |
| COc1cc(-c2nnc(SCC(=O)c3cc(C)n(CC4CCCO4)c3C)o2)cc(OC)c1OC (stereo not drawn) |  | inconclusive: 29.1 µM [inhibitor, single point] |
| Cc1sc(NC(=O)/C=C/c2ccc(C(C)C)cc2)c(C#N)c1C |  | inconclusive: 0.517 µM [activator, full curve, poor fit] |
| CCN(CC)S(=O)(=O)c1ccc2c(c1)N(CC(=O)NCc1ccccc1)C(=O)C1CCCCN21 (stereo not drawn) |  | inconclusive: 35.5 µM [inhibitor, single point] |

Molecules above containing bromine (two):

| Compound | activity change, negative = inhibition | Potency |
| --- | --- | --- |
| C=CCNC(=O)c1cc(-c2ccc(Br)cc2)on1 | inactive: -16.5% |  |
| Cc1cc(SCC(=O)N/N=C/c2ccc(O)c(O)c2O)c(C)cc1Br |  | inconclusive: 35.5 µM [inhibitor, single point] |

Reference: PubChem BioAssay AID540256 (National Center for Advancing Translational Sciences (NCATS), 2011)
